PubChem BioAssay AID258 (DTP/NCI, 2004)
The list does not hold the whole screen: it is rich in T/C values a quarter to a half above the control, in often repeated tests (any T/C) and in doses without a T/C. Further doses and runs are listed elsewhere. T/C is the treated group as % of the vehicle group. Some entries give survivors of the animals treated and no T/C: the source holds a T/C of zero for them, seemingly a mark for toxic or unscored doses. Some doses without a T/C left all or most animals alive at the check, yet need not have been tolerated: the source hardly ever lists a survival T/C far under the control, and the zero likely stands for such cases as well. Survivors were counted at the toxicity check, usually on the fifth day, unless a day is given; later deaths do not show. Schedule codes are those of the source, taken here to give the interval after Q, in days (D) or hours (H), and the number of doses after X. Some doses were run more than once; the values are given in rising order. Some schedules carry Z or #; the key to these is not given. Where survival is the endpoint, the PubChem record calls one and a half times the control and up active, and a quarter to a half above the control has no call in these data; cut-offs in other NCI protocols can differ.

Tested on: CD2F1 mice, L1210 leukemia sc, survival T/C
Assay: NCI In Vivo Anticancer Drug Screen. Data for tumor model L1210 Leukemia (subcutaneous) in CD2F1 (CDF1) mice
Details: T/C endpoint: median survival time, higher T/C = longer survival
Method in brief: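 Transplantable tumor-bearing mice were treated with compound; survival or tumor size measured and expressed as treated-group value (T) divided by vehicle-treated control value (C).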

[1] = dose: 12.5 mg/kg/injection, schedule: Q01DX009 (ip), vehicle: Klucel (hydroxypropylcellulose) (HPC)

SMILES: NC(Cc1ccccc1)C(=O)OCN1C(=O)C2C3C=CC(C2C1=O)C1C2C(=O)N(COC(=O)C(N)Cc4ccccc4)C(=O)C2C31 (stereo not drawn)
- T/C (dose: 44.1 mg/kg/injection, schedule: Q01DX009 (ip), vehicle: water): 128 % of control
- T/C (dose: 60.0 mg/kg/injection, schedule: Q01DX009 (ip), vehicle: water): 130 % of control
- T/C (dose: 63.0 mg/kg/injection, schedule: Q01DX009 (ip), vehicle: other): 127 % of control
- T/C (dose: 63.0 mg/kg/injection, schedule: Q01DX009 (ip), vehicle: water): 145 % of control
- T/C (dose: 90.0 mg/kg/injection, schedule: Q01DX005 (iv), vehicle: other): 138 % of control
- T/C (dose: 151.0 mg/kg/injection, schedule: Q01DX009 (oral), vehicle: other): 135 % of control
- survivor count (dose: 166.7 mg/kg/injection, schedule: Q01DX009 (ip), vehicle: water): 0 of 10
- T/C (dose: 216.0 mg/kg/injection, schedule: Q01DX009 (oral), vehicle: other): 137 % of control
- T/C (dose: 309.0 mg/kg/injection, schedule: Q01DX009 (oral), vehicle: other): 137 % of control
- T/C (dose: 309.0 mg/kg/injection, schedule: Q01DX009 (oral), vehicle: water): 143 % of control
- survivor count (dose: 441.0 mg/kg/injection, schedule: Q01DX009 (oral), vehicle: water): 3 of 6
- survivor count (dose: 900.0 mg/kg/injection, schedule: Q01DX009 (oral), vehicle: other): 3 of 6
- survivor count (dose: 1286.0 mg/kg/injection, schedule: Q01DX009 (oral), vehicle: water): 1 of 6

SMILES: C[n+]1c2ccccc2nc2c(N)cc(N)cc21
- survivor count (dose: 65.0 mg/kg/injection, schedule: Q01DX Z (sc), vehicle: water): 1 of 8

SMILES: [Cl][Pt+2][Cl].[NH-]CC1(C[NH-])CCC1
- T/C (dose: 0.78 mg/kg/injection, schedule: Q01DX009 (ip), vehicle: Klucel (hydroxypropylcellulose) (HPC), evaluated on day 30): 104 and 108 % of control
- T/C (dose: 0.78 mg/kg/injection, schedule: Q01DX009 (ip), vehicle: Klucel (hydroxypropylcellulose) (HPC), evaluated on day 60): 102 % of control
- T/C (dose: 1.56 mg/kg/injection, schedule: Q01DX009 (ip), vehicle: Klucel (hydroxypropylcellulose) (HPC), evaluated on day 30): 112 and 136 % of control
- T/C (dose: 1.56 mg/kg/injection, schedule: Q01DX009 (ip), vehicle: Klucel (hydroxypropylcellulose) (HPC), evaluated on day 60): 112 % of control
- T/C (dose: 3.13 mg/kg/injection, schedule: Q01DX009 (ip), vehicle: Klucel (hydroxypropylcellulose) (HPC)): 132 and 146 % of control
- T/C (dose: 6.25 mg/kg/injection, schedule: Q01DX009 (ip), vehicle: Klucel (hydroxypropylcellulose) (HPC), evaluated on day 30): 105 and 159 % of control
- T/C (dose: 6.25 mg/kg/injection, schedule: Q01DX009 (ip), vehicle: Klucel (hydroxypropylcellulose) (HPC), evaluated on day 60): 188 % of control
- T/C [1]: 97 % of control
- survivor count [1]: 7 of 10 and 10 of 10
